Assay results published in paper PMC7696395.
No constants are given. Whether binding was seen depends on the method and setting. In cells and extracts the contact can be indirect. Some entries that bind do so weakly or less than the wild type.

Protein sequences, listed by entry. Tags and fused reporters are not part of them. Residues count along the entry.
UniProt Q63495, residues 23-402: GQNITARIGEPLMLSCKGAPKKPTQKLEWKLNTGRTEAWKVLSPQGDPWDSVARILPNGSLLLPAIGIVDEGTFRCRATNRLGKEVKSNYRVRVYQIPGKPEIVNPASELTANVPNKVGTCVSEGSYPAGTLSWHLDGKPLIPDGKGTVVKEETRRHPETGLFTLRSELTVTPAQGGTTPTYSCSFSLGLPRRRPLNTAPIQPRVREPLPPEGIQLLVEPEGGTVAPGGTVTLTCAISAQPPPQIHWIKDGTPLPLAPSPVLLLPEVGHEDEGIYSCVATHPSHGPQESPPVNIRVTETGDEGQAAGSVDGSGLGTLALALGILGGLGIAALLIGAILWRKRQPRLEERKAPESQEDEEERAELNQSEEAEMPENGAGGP

Biological target: receptor for advanced glycation end products (RAGE) (rat (endogenous in ASMC)) (UniProt Q63495)
Test: co-IP; 0.5 mg of ASMC cell lysate incubated overnight with RAGE antibody (ab216329) or caspase-8 antibody (#9746), protein A/G agarose beads, Western blot; cells treated for 24 h with vehicle (PBS), HG, AGEs, S100B or S100A6

binding: binds
B1: caspase-8 (enzyme, UniProt Q9JHX4 1-482)
chain: MDFHSCLYDIAERLGNEELAALKFLCLDHIPQKKQESINDVLVLFQRLQEEGMLEEDNLSFLKELLFHISRRDLLSRVLKSSPEEMVRELQVLGKAQVSAYRVMLFKLSEDMDKEDLKSFKFLLITEIPKCKLQDNSSLLDIFVEMEKRTILAENNLVTLKSICFRVNRSLLGRIDDYERSSTERRMSTEGGEELPVSVLDEVTIKMQDMWDSPGEQESESLNSDNVYQMKSKPRGYCLIFNNNNFSKAREDIPKLSNMRDRKGTNYDEEALSKTFKELHFEIVSFSDCTASQIHEVLVSYQSKDHKGKDCFICCILSHGDKGIVYGTDGKEASIYELTSYFTGSKCPSLAGKPKIFFIQACQGNNFQKAVPVPDETGLEQEHVLEEDSSSYKNYIPDEADFLLGMATVKNCVSYRDPTRGTWYIQSLCQSLRERCPRGEDILSILTGVNYDVSNKDNPRNMGKQMPQPIFTLRKKLFFPPN
